Data reported in patent US8466161B2, “Hydroxamate derivative, a production method for the same, and a pharmaceutical composition comprising the same” (Chong Kun Dang Pharmaceutical Corp., priority 2009, dated 2013).

Test system: HL60 cell line
Assay: Inhibitory effect on growth of HL60 cell line (MTT)
Format: cell-based
Conditions: Homo sapiens, HL-60, 72 h, 3 days culture
Experimental: In the culture of HL60 cells, 10% FBS-containing RPMI1640 medium was used Each of test substances was serially diluted in DMSO to a concentration of 10 mg/ml and serially diluted in PBS to a final concentration ranging from 100 μg/ml to 0.03 μg/ml. 20 μl (micro-liter) of each of the serially diluted test substances and 180 μl (micro-liter) of a medium containing 60×10^4 cells/ml were added to a 96-well plate and cultured under conditions of 37° C. and 5% CO2 for 3 days. After completion of the culture, 50 μl (micro-liter) of a solution of 1.25 mg/ml MTT (3-(4,5-dimethylthiazol-2-yl)-2,5-diphenyltetrazolium bromide) in PBS was added to each well of the plate and incubated at 37° C. for 3 hours. The formed formazan crystal was dissolved in 150 μl (micro-liter) of DMSO, and the absorbance at 570 nm was measured.

For O=C(CCCCCCC(=O)Nc1ccccc1)NO [SAHA, vorinostat, reference compound], the IC50 was 600 to 1000 nM.
